Source: patent US8476283B2, “[6,5]—bicyclic GPR119 G protein-coupled receptor agonists” (Bristol-Myers Squibb Company, priority 2007, dated 2013)
At least one structure is not confirmed: it was looked up by name or label, or the drawing left a doubt.

Target: T1, GPR119 (Homo sapiens, UniProt Q8TDV5)
T1 construct: expressed in transfected cells; host or cells: Flp-In-T-REx 293
T1 sequence (Q8TDV5 1-335): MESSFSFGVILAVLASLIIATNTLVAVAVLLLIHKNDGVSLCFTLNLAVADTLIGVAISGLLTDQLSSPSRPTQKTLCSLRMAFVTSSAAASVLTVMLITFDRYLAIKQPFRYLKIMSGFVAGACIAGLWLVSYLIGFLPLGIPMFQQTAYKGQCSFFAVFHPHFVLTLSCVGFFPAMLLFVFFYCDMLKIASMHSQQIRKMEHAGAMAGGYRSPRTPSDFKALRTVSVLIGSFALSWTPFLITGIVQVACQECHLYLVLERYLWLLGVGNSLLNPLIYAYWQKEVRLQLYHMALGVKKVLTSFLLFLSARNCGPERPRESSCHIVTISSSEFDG
Assay: Human Tet-Inducible cAMP Assay (hEC50, Table 1)
Type: cell-based
Set-up: scale not given here
Conditions: IA as printed beside hEC50 (not defined in the text)
Description: The in vitro modulation of GPR119 was determined as follows.
Human Tet-Inducible cAMP Assay
Cell lines using the Flp-In-T-REx 293 tetracycline inducible gene expression system are cultured in culture medium comprising the following components: DMEM#11965, 10% FBS, 2 mM L-glutamine, 200 ug/ml Hygromycin B, and 15 ug/ml blasticidin.
For cAMP assays, cells are plated on 96 well plates (e.g., BD Falcon: REF 353948, black side, clear bottom, TC surface) at a density of about 4.5×10^4 cells per well in growth medium containing 1.0 ug/ml tetracycline (1.0 mg/ml stock). The cells are then incubated for 48 hours at 37° C.
Following the incubation, the growth medium is removed from the wells and the wells rinsed (once) with the assay buffer included in the Hit Hunter cAMP kit (100 μl/well). Following the wash, 20 μl of assay buffer is added to each well, followed by addition of 10 μl of a 3× concentration compound working solution. The solution is then mixed. The final concentration range of compound is from about 10^−5M to about 10^−11M. The reagents are then incubated at 37° C. at 5% CO2 for 1 hour.
The manufacturer's protocol may be followed for cAMP determination. The Hit Hunter cAMP kit protocol is outlined for the HIT-T15 cAMP assays described above.

With CC(C)(C)OC(=O)N1CCC(n2nnc3c(Nc4ccc(S(C)(=O)=O)cc4F)ncnc32)CC1 [Example 3, tert-Butyl 4-(7-(2-fluoro-4-(methylsulfonyl)phenylamino)-3H-[1,2,3]triazolo[4,5-d]pyrimidin-3-yl)piperidine-1-carboxylate] the IA was 0.69.
